Literature values as cited in patent US12226431B2 (priority 2021, dated 2025).
Some of these results come from one statement about several compounds together.

System: SARS-COV-2
Conditions: humans, CDs and quercetin used separately, RT-qPCR; cited from earlier work

| Molecule | effectiveness in providing protection from SARS-COV-2 infection |
| --- | --- |
| O=c1c(O)c(-c2ccc(O)c(O)c2)oc2cc(O)cc(O)c12 [quercetin] | 98%-100% |
| cyclodextrins [CDs] | 98%-100% |
